Source: PubChem BioAssay AID493246 (Drosophila RNAi Screening Center, 2011)
The deposit covers about 21,000 reagents; shown is a random part of those that have a named target and a result. In the full data, 429 (2%) were called active. 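Values are raw and not normalised between plates; calls rest on per-plate z-scores that were not deposited.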 No sequences are given here. Not stated in the record: the amount of reagent, the time to read-out.

Purpose: 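Identify essential fly genes by loss of cell viability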 (primary screen)
System: Drosophila Kc and S2R+ cells
Reagents: long dsRNA against Drosophila genes
Measured: 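Cell number per well after knock-down, printed as raw plate values; calls were based on per-plate z-scores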
Reading the numbers: Kc cell number and S2R+ cell number: higher = more cells remaining
Call rule: 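Active when the per-plate z-score of cell number is 3 or more in the direction of fewer cells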

Silencing of Pld3 (GeneID 35384) [DRSC03167] gave: Kc cell number, rep 1 = 1.31e6; Kc cell number, rep 2 = 1.38e6; S2R+ cell number, rep 1 = 1.05e6; S2R+ cell number, rep 2 = 1.09e6; inactive.
CG13157 (GeneID 36355) [DRSC06282] gave Kc cell number, rep 1 = 1.47e6; Kc cell number, rep 2 = 1.53e6; S2R+ cell number, rep 1 = 1.30e6; S2R+ cell number, rep 2 = 1.37e6; inactive.
With knock-down of PEK (GeneID 40653) [DRSC12361] the results were Kc cell number, rep 1 = 1.42e6; Kc cell number, rep 2 = 1.52e6; S2R+ cell number, rep 1 = 1.17e6; S2R+ cell number, rep 2 = 1.20e6; inactive.
Knock-down of mago (GeneID 37402) [DRSC04703] resulted in: Kc cell number, rep 1 = 1.68e6; Kc cell number, rep 2 = 1.81e6; S2R+ cell number, rep 1 = 1.40e6; S2R+ cell number, rep 2 = 3.85e5; inactive.
With knock-down of Dad (GeneID 42059) [DRSC16642], the screen gave Kc cell number, rep 1 = 1.78e6; Kc cell number, rep 2 = 1.91e6; S2R+ cell number, rep 1 = 1.21e6; S2R+ cell number, rep 2 = 1.35e6; inactive.
Silencing of Cpr5C (GeneID 31510) [DRSC18340] resulted in: Kc cell number, rep 1 = 1.36e6; Kc cell number, rep 2 = 1.42e6; S2R+ cell number, rep 1 = 1.05e6; S2R+ cell number, rep 2 = 1.18e6; inactive.
With knock-down of CG3638 (GeneID 31071) [DRSC18533] the results were Kc cell number, rep 1 = 1.47e6; Kc cell number, rep 2 = 1.54e6; S2R+ cell number, rep 1 = 1.05e6; S2R+ cell number, rep 2 = 1.16e6; inactive.
After knock-down of WDR79 (GeneID 33865) [DRSC03159] the results were Kc cell number, rep 1 = 1.28e6; Kc cell number, rep 2 = 1.47e6; S2R+ cell number, rep 1 = 4.24e5; S2R+ cell number, rep 2 = 4.10e5; inactive.
For barc (GeneID 40369) [DRSC11792], the entry reads Kc cell number, rep 1 = 1.30e6; Kc cell number, rep 2 = 1.37e6; S2R+ cell number, rep 1 = 1.25e6; S2R+ cell number, rep 2 = 1.31e6; inactive.
CG4781 (GeneID 37943) [DRSC04488] gave Kc cell number, rep 1 = 1.81e6; Kc cell number, rep 2 = 1.88e6; S2R+ cell number, rep 1 = 1.29e6; S2R+ cell number, rep 2 = 1.27e6; inactive.
After knock-down of CG13924 (GeneID 38247) [DRSC08393] the results were Kc cell number, rep 1 = 1.61e6; Kc cell number, rep 2 = 1.43e6; S2R+ cell number, rep 1 = 1.13e6; S2R+ cell number, rep 2 = 1.36e6; inactive.
Depletion of ca (GeneID 43518) [DRSC15305] resulted in: Kc cell number, rep 1 = 5.46e5; S2R+ cell number, rep 1 = 8.58e5; inactive.
After knock-down of ca (GeneID 43518) [DRSC15306], the screen gave Kc cell number, rep 1 = 1.50e6; Kc cell number, rep 2 = 1.56e6; S2R+ cell number, rep 1 = 9.73e5; S2R+ cell number, rep 2 = 1.15e6; inactive.
ca (GeneID 43518) [DRSC16314] gave Kc cell number, rep 1 = 1.48e6; Kc cell number, rep 2 = 1.50e6; S2R+ cell number, rep 1 = 1.03e6; S2R+ cell number, rep 2 = 1.16e6; inactive.
HDAC1 (GeneID 38565) [DRSC08696] gave Kc cell number, rep 1 = 1.49e6; Kc cell number, rep 2 = 1.56e6; S2R+ cell number, rep 1 = 1.09e6; S2R+ cell number, rep 2 = 1.09e6; inactive.
With knock-down of CG14851 (GeneID 41763) [DRSC14975] the results were Kc cell number, rep 1 = 1.46e6; Kc cell number, rep 2 = 1.57e6; S2R+ cell number, rep 1 = 1.18e6; S2R+ cell number, rep 2 = 1.34e6; inactive.
Best4 (GeneID 39660) [DRSC10792] scored Kc cell number, rep 1 = 1.58e6; Kc cell number, rep 2 = 1.73e6; S2R+ cell number, rep 1 = 1.38e6; S2R+ cell number, rep 2 = 1.45e6; inactive.
With knock-down of CG12011 (GeneID 38211) [DRSC08219] the results were Kc cell number, rep 1 = 1.36e6; Kc cell number, rep 2 = 5.88e5; S2R+ cell number, rep 1 = 1.08e6; S2R+ cell number, rep 2 = 1.20e6; inactive.
Spred (GeneID 36643) [DRSC05976] showed Kc cell number, rep 1 = 1.47e6; Kc cell number, rep 2 = 1.53e6; S2R+ cell number, rep 1 = 1.14e6; S2R+ cell number, rep 2 = 1.23e6; inactive.
With knock-down of CG3815 (GeneID 31571) [DRSC18324] the results were Kc cell number, rep 1 = 6.08e5; S2R+ cell number, rep 1 = 7.88e5; inactive.
For CG5065 (GeneID 36860) [DRSC06912], the values are Kc cell number, rep 1 = 1.60e6; Kc cell number, rep 2 = 1.61e6; S2R+ cell number, rep 1 = 1.19e6; S2R+ cell number, rep 2 = 1.31e6; inactive.

Ordered by “Kc cell number, rep 1” (low to high): some entries from above
Cpr5C (GeneID 31510) [DRSC18340] — Kc cell number, rep 1: 1.36e6; Kc cell number, rep 2: 1.42e6; S2R+ cell number, rep 1: 1.05e6; S2R+ cell number, rep 2: 1.18e6; Call: inactive
Dad (GeneID 42059) [DRSC16642] — Kc cell number, rep 1: 1.78e6; Kc cell number, rep 2: 1.91e6; S2R+ cell number, rep 1: 1.21e6; S2R+ cell number, rep 2: 1.35e6; Call: inactive
